Measured values: PMC10285036
These are yes or no findings as the source states them, for the method shown. In cells and extracts the contact can be indirect. Some entries that bind do so weakly or less than the wild type.

Protein sequences, listed by entry. Tags and fused reporters are not part of them.
UniProt Q96P20: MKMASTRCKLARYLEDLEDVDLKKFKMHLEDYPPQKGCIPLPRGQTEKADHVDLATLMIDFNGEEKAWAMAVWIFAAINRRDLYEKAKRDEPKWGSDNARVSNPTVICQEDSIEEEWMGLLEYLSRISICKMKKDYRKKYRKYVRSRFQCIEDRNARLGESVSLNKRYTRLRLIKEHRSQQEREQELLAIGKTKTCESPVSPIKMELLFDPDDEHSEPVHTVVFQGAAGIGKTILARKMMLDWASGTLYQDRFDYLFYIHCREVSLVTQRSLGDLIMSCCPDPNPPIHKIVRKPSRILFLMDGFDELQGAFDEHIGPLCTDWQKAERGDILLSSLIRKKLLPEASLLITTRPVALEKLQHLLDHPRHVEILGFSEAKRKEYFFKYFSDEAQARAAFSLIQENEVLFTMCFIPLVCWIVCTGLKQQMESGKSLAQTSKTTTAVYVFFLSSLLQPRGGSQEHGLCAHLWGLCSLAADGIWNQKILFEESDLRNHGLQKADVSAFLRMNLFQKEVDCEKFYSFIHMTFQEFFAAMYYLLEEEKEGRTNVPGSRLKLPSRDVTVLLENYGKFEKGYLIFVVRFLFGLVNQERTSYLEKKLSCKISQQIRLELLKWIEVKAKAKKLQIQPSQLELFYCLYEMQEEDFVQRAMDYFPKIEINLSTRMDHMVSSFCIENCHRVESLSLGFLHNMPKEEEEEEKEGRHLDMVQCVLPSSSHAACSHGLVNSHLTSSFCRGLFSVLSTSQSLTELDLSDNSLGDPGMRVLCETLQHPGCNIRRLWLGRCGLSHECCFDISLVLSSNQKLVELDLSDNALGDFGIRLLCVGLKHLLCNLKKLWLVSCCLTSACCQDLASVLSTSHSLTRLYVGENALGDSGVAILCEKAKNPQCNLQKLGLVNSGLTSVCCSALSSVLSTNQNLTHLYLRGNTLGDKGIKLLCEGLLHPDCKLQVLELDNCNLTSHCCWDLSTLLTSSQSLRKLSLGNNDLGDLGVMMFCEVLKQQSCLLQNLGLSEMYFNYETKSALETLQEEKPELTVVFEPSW
UniProt P46736: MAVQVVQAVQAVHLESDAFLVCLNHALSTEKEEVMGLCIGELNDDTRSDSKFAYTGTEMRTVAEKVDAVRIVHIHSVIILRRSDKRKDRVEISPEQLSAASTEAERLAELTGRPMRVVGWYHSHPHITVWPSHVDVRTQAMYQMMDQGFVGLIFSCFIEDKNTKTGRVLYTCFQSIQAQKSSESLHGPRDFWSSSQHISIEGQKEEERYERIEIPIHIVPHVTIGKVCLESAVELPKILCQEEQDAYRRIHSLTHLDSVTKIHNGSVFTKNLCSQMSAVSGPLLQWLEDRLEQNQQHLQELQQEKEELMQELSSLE

B1: vitamin D receptor (VDR) (protein, UniProt P11473 1-427)
chain: MEAMAASTSLPDPGDFDRNVPRICGVCGDRATGFHFNAMTCEGCKGFFRRSMKRKALFTCPFNGDCRITKDNRRHCQACRLKRCVDIGMMKEFILTDEEVQRKREMILKRKEEEALKDSLRPKLSEEQQRIIAILLDAHHKTYDPTYSDFCQFRPPVRVNDGGGSHPSRPNSRHTPSFSGDSSSSCSDHCITSSDMMDSSSFSNLDLSEEDSDDPSVTLELSQLSMLPHLADLVSYSIQKVIGFAKMIPGFRDLTSEDQIVLLKSSAIEVIMLRSNESFTMDDMSWTCGNQDYKYRVSDVTKAGHSLELIEPLIKFQVGLKKLNLHEEEHVLLMAICIVSPDRPGVQDAALIEAIQDRLSNTLQTYIRCRHPPPGSHLLYAKMIQKLADLRSLNEEHSKQYRCLSFQPECSMKLTPLVLEVFGNEIS

Molecular target: NOD-like receptor family pyrin domain containing 3 (NLRP3) (human (endogenous in HBE)) (UniProt Q96P20)
Test: co-IP; lysates of HBE-N cells, treated with or without VD3, immunoprecipitated with anti-NLRP3 antibody or anti-rabbit IgG and immunoblotted for VDR and BRCC3

| Molecule | binding |
| --- | --- |
| BRCA1/BRCA2-containing complex subunit 3 (BRCC3) (from UniProt P46736 1-316) (enzyme) | binds |
| B1 | binds |
